Test system: patients with T1D
Assay: Blood pressure, arterial stiffness, HRV and adrenergic mediators in normotensive T1D patients under clamped euglycemia and hyperglycemia
Assay type: in vivo, human
Settings: both glycemic conditions; 8 weeks of 25 mg daily
Protocol: Blood pressure, arterial stiffness, heart rate variability (HRV) and circulating adrenergic mediators were measured during clamped euglycemia and hyperglycemia in 40 normotensive patients with T1D. Studies were repeated after 8 weeks of empagliflozin (25 mg daily).
Augmentation index (Alx) for the radial and carotid arteries as well as a derived aortic Alx and carotid, radial and femoral pulse wave velocities (PWV) are measured for assessment of arterial stiffness using a SphygmoCor® System (AtCor Medical Inc., Itasca, Ill.).

OC[C@H]1O[C@@H](c2ccc(Cl)c(Cc3ccc(O[C@H]4CCOC4)cc3)c2)[C@H](O)[C@@H](O)[C@@H]1O [empagliflozin, 1-chloro-4-(β-D-glucopyranos-1-yl)-2-[4-((S)-tetrahydrofuran-3-yloxy)-benzyl]-benzene]
remained unchanged: heart rate variability (HRV) | plasma adrenaline | plasma noradrenaline

Source: patent US11813275B2, “Pharmaceutical composition, methods for treating and uses thereof” (Boehringer Ingelheim International GmbH, priority 2013, dated 2023)
